Where a name gives a salt, the structure may show the parent alone. The list shows a part of the results. Hit calls seldom repeat between salt and free forms of one compound.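 Kinases were expressed as nanoluciferase fusions in K562 cells and luminescence was read every 4 h between 2 and 18 h as percent of control, DMSO set to 100% and a positive control to 0%. A time point counts as decreased when the signal drops significantly (2 sigma). The hit call is the authors' own, does not follow from the count of time points alone, and its rule is not shown.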
Assays:
Experiment in all cases: number of time points (of 5) at which kinase-Nluc abundance scored as decreased, DMSO-normalised (count); higher = more persistent destabilization
Conditions in all cases: K562; 2-18 h
PRKCA = PRKCA (UniProt P17252)
PTK2 = PTK2 (UniProt Q05397)
PTK2B = PTK2B (UniProt Q14289)
RAF1 = RAF1 (UniProt P04049)
[1] = molecular target: RAF1_S257L (clone: RAF1_mut) (UniProt P04049)
RET = RET (UniProt P07949)
[2] = molecular target: RET_M918T (clone: RET_mut) (UniProt P07949)
RIOK1 = RIOK1 (UniProt Q9BRS2)
RIPK1 = RIPK1 (UniProt Q13546)
RIPK2 = RIPK2 (UniProt O43353)
ROR2 = ROR2 (UniProt Q01974)
RPS6KA1 = RPS6KA1 (UniProt Q15418)
SPHK1 = SPHK1 (UniProt Q9NYA1)
SRC = SRC (UniProt P12931)
STK24 = STK24 (UniProt Q9Y6E0)
STK38 = STK38 (UniProt Q15208)
SYK = SYK (UniProt P43405)
TEC = TEC (UniProt P42680)
TYK2 = TYK2 (UniProt P29597)
ULK3 = ULK3 (UniProt Q6PHR2)

Amino acid sequences for entries named in this document (tags omitted). A change or cut given only in a name is not applied to a line headed by its entry.
UniProt Q14289, whole entry, looked up: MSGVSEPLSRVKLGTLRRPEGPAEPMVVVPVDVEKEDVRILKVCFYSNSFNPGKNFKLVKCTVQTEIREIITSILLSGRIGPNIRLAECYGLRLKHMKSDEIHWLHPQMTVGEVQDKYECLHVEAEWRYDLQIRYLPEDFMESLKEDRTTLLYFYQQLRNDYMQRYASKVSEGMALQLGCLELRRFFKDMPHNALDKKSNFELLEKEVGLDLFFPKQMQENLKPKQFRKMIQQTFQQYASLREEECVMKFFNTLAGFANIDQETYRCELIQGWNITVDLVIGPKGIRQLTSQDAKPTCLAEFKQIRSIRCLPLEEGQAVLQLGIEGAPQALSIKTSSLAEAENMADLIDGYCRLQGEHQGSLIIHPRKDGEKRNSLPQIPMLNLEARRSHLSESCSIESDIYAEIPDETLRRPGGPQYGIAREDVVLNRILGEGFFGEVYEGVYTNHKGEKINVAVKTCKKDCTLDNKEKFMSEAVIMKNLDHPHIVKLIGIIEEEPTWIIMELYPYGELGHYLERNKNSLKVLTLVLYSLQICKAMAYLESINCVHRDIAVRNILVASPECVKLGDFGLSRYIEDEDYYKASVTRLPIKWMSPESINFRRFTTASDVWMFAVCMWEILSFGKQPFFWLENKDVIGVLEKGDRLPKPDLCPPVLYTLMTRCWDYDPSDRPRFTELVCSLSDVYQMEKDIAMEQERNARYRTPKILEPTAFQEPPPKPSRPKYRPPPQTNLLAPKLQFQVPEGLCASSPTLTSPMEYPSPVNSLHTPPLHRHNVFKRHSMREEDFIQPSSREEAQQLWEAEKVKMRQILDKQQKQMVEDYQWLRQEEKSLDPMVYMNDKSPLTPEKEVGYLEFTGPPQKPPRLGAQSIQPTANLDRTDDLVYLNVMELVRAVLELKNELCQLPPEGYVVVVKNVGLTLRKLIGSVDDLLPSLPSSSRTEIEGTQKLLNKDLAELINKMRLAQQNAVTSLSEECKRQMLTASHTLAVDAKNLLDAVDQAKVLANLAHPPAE
UniProt P07949, whole entry, looked up: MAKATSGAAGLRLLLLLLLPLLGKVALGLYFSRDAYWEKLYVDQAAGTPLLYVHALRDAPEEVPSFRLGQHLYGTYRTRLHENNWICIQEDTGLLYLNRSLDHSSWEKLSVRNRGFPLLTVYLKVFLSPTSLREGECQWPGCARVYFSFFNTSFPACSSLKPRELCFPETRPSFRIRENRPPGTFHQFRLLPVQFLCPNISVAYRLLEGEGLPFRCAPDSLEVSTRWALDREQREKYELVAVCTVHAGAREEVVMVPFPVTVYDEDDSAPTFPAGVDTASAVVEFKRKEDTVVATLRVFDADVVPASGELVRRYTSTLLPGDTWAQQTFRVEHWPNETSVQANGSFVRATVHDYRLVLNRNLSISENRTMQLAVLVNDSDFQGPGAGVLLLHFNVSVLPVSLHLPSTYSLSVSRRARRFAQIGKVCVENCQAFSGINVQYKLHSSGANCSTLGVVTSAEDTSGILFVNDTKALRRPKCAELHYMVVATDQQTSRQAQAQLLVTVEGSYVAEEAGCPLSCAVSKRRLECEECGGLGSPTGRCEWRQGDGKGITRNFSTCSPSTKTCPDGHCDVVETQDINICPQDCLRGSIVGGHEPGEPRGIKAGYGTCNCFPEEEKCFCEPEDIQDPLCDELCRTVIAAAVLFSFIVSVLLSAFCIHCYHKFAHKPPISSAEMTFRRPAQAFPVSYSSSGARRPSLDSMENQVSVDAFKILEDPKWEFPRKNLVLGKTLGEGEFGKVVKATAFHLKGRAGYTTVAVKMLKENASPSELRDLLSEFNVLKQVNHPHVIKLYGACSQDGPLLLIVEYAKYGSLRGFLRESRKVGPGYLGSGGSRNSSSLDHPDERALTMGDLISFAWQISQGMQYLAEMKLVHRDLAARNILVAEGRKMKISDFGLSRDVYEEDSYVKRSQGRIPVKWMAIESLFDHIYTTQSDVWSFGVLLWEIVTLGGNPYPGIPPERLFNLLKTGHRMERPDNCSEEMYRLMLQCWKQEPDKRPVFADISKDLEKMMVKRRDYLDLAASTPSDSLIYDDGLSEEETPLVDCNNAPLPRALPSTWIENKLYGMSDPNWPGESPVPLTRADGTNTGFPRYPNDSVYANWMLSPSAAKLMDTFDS
UniProt P07949, whole entry M918T, looked up: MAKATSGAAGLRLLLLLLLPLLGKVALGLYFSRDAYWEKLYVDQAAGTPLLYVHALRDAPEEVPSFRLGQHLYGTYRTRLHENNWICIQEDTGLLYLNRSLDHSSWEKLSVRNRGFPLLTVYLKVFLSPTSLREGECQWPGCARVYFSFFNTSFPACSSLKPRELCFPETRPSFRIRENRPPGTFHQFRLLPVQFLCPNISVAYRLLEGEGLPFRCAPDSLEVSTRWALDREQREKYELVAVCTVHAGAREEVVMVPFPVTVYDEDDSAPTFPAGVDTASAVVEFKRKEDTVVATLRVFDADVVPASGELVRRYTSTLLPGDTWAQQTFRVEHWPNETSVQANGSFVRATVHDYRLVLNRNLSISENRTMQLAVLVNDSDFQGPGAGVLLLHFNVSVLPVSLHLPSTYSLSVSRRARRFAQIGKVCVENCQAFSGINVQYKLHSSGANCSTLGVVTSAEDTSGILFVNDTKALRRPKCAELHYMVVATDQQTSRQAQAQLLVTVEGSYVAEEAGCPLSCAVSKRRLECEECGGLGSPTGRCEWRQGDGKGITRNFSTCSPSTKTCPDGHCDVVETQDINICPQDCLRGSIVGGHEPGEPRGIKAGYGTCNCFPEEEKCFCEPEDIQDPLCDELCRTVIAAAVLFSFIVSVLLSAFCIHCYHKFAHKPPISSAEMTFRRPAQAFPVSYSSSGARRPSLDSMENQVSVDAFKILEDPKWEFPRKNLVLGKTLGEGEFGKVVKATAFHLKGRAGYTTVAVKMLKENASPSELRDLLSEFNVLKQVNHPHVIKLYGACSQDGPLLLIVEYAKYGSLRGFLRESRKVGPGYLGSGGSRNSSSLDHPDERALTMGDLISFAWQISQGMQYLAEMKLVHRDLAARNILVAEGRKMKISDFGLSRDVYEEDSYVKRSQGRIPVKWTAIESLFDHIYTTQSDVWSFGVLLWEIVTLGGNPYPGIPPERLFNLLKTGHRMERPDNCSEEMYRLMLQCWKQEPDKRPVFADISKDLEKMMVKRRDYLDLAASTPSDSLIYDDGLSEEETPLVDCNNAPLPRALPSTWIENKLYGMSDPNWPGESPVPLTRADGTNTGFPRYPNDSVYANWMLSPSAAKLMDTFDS
UniProt Q9BRS2: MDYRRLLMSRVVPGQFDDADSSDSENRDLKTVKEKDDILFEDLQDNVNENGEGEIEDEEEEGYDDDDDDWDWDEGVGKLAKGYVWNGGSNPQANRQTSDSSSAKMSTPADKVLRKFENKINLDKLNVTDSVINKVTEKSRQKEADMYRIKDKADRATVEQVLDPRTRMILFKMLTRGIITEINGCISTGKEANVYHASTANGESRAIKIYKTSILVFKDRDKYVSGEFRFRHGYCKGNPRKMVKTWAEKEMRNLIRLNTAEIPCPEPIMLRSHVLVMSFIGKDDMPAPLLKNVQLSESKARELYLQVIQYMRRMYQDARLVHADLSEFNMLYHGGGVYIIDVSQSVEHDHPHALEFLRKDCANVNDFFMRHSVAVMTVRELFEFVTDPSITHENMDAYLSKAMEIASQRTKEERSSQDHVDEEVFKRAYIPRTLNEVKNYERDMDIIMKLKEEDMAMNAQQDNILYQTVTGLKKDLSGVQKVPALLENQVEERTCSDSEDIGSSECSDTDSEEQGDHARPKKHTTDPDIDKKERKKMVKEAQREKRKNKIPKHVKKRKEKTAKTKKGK
UniProt Q13546: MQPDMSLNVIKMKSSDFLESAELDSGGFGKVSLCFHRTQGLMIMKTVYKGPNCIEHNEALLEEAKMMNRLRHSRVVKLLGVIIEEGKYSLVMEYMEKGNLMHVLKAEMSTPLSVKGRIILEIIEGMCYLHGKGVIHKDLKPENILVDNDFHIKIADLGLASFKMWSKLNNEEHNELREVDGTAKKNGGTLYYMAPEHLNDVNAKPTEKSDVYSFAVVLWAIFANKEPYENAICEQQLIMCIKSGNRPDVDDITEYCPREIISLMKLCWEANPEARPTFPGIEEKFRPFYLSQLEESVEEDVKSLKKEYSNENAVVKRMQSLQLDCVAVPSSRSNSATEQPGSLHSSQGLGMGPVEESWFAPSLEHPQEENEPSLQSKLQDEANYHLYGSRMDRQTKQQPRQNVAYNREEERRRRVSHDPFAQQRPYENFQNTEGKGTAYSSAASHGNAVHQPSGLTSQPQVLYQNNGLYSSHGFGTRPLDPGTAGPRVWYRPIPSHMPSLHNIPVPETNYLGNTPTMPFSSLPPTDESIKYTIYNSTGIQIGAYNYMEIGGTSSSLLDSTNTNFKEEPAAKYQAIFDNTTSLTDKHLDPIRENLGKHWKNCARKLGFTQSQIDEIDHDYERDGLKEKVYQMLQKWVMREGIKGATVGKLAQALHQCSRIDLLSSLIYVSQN
UniProt Q15418, whole entry: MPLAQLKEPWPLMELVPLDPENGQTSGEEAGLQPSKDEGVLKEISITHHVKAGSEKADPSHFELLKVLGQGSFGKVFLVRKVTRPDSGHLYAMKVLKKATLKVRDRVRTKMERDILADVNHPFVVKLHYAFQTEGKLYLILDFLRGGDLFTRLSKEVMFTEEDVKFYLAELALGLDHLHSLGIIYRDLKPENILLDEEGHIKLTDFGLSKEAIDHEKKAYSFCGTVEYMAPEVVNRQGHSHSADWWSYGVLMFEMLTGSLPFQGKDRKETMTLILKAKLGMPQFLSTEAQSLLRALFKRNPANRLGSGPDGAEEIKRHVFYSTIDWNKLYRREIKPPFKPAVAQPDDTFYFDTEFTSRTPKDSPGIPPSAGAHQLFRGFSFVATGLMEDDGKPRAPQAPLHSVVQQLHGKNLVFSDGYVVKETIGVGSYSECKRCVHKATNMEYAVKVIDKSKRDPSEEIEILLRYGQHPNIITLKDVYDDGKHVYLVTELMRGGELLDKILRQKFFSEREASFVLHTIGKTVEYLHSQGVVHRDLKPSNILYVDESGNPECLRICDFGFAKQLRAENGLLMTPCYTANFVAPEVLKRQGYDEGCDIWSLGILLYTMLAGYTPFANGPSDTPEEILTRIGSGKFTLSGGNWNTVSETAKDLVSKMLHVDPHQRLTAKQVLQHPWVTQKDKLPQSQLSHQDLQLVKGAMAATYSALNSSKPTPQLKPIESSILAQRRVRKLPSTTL
UniProt Q9NYA1, whole entry: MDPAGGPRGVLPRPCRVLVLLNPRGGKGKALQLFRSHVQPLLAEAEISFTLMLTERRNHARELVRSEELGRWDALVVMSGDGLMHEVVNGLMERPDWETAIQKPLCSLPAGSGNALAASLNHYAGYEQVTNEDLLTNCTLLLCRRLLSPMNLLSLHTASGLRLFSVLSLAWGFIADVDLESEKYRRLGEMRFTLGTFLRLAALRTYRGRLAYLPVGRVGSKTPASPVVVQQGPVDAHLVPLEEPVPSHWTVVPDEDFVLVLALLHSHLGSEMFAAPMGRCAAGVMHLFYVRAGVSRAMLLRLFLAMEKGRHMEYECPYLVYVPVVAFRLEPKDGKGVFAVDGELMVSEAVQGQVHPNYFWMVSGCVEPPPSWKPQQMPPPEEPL
UniProt Q9Y6E0: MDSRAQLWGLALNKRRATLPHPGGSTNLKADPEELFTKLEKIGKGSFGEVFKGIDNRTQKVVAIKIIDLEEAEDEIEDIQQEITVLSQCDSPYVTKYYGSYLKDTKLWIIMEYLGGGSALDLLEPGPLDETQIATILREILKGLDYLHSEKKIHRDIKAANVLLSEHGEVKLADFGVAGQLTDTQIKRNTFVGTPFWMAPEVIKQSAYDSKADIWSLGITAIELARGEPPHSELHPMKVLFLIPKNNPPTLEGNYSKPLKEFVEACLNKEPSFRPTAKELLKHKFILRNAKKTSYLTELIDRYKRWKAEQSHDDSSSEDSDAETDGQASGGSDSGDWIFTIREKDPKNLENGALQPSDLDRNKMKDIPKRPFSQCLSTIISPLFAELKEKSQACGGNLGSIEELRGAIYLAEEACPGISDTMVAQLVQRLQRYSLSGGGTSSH
UniProt Q15208: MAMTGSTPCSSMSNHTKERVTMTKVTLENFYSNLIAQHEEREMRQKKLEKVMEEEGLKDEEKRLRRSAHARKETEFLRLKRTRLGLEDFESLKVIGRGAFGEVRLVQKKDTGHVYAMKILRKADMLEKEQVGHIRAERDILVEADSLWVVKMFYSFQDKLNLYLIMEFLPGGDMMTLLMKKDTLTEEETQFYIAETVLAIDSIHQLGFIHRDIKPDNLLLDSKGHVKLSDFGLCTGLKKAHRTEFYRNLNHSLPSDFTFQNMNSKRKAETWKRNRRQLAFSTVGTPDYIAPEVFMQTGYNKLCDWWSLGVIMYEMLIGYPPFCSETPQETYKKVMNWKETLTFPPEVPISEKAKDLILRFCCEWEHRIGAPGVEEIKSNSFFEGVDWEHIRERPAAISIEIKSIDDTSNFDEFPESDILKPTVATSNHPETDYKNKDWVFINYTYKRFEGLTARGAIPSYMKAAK

Row | SMILES | number of time points (PRKCA) | number of time points (PTK2) | number of time points (PTK2B) | number of time points (RAF1) | number of time points [1] | number of time points (RET) | number of time points [2] | number of time points (RIOK1) | number of time points (RIPK1) | number of time points (RIPK2) | number of time points (ROR2) | number of time points (RPS6KA1) | number of time points (SPHK1) | number of time points (SRC) | number of time points (STK24) | number of time points (STK38) | number of time points (SYK) | number of time points (TEC) | number of time points (TYK2) | number of time points (ULK3)
1 | N#Cc1ccnc(Nc2cc(C3CCN(C4COC4)CC3)cc(N3CCC(F)(F)C3)n2)c1 (2.5 µM) | 0 | 3 | 0 | 0 | 0 | 0 | 0 | 0 | 0 | 0 | 0 | 0 | 0 | 0 | 0 | 0 | 0 | 0 | 0 | 0
2 | C=CC(=O)N1C(=O)CC(c2ccc(F)cc2)Sc2ccccc21 (stereo not drawn) [GSK-3β inhibitor 3] (10 µM) | 0 | 1 | 0 | 0 | 0 | 0 | 0 | 0 | 0 | 0 | 0 | 0 | 0 | 0 | 0 | 0 | 0 | 0 | 0 | 0
3 | Cc1cnc(NC2CCOCC2)nc1-n1cnc(C(=O)N[C@H](CN)c2cc(F)cc(Cl)c2)c1 (10 µM) | 0 | 0 | 0 | 0 | 0 | 0 | 0 | 0 | 0 | 0 | 0 | 0 | 0 | 0 | 0 | 0 | 0 | 0 | 0 | 0
4 | O=C(Nc1cccc(C(F)(F)F)c1)c1cccc2cc(Oc3cc(CO)ncn3)ccc12 (10 µM) | 0 | 0 | 0 | 0 | 0 | 0 | 0 | 0 | 0 | 0 | 0 | 0 | 0 | 0 | 0 | 0 | 0 | 0 | 0 | 0
5 | CC1(C)Cc2c(sc(NC(=S)NC(=O)c3ccccc3)c2C(=O)O)CO1 (10 µM) | 0 | 0 | 0 | 0 | 0 | 0 | 0 | 0 | 0 | 0 | 0 | 0 | 0 | 0 | 0 | 0 | 0 | 0 | 0 | 0
6 | CNc1cc(Nc2cccn(-c3ccccn3)c2=O)nn2c(C(=O)N[C@@H]3C[C@@H]3F)cnc12 (2.5 µM) | 0 | 0 | 5 | 0 | 0 | 0 | 0 | 0 | 0 | 0 | 0 | 0 | 0 | 0 | 0 | 0 | 0 | 0 | 0 | 0
7 | COc1cc(N(C)CCN(C)C)c(N)cc1Nc1nccc(-c2cn(C)c3ccccc23)n1 [Mutated EGFR-IN-1] (10 µM) | 0 | 0 | 0 | 0 | 2 | 0 | 0 | 0 | 0 | 0 | 0 | 0 | 0 | 0 | 0 | 0 | 0 | 0 | 0 | 0
8 | Cc1cc2sc(NC(=O)Cc3ccccc3)nc2cc1Cl (10 µM) | 0 | 0 | 0 | 0 | 0 | 0 | 0 | 0 | 0 | 0 | 0 | 0 | 0 | 0 | 0 | 0 | 0 | 0 | 0 | 0
9 | COc1ccc(N=Nc2c(N)n[nH]c2N)cc1 (10 µM) | 0 | 0 | 0 | 0 | 0 | 0 | 0 | 0 | 0 | 0 | 0 | 0 | 0 | 0 | 0 | 0 | 0 | 0 | 0 | 0
10 | C[C@H](NC(=O)[C@H]1NCC[C@@H]1O)c1ccc(-c2noc(CCC3CCCC3)n2)cc1 (10 µM) | 0 | 0 | 0 | 0 | 0 | 0 | 0 | 0 | 0 | 0 | 0 | 0 | 0 | 0 | 0 | 0 | 0 | 0 | 0 | 0
11 | CC(C)CCNC(=O)c1ccc2c(c1)nc(Nc1n[nH]c3ccc(-c4ccccc4OC(F)(F)F)cc13)n2C1CCC(O)CC1 (stereo not drawn) [IRAK inhibitor 4 (trans)] (10 µM) | 0 | 0 | 0 | 0 | 0 | 0 | 0 | 0 | 0 | 0 | 0 | 0 | 0 | 0 | 0 | 0 | 0 | 0 | 0 | 0
12 | CNC(=O)c1ccccc1Oc1nc(Nc2cc(OC)c(OC)c(OC)c2)ncc1Br (2.5 µM) | 0 | 0 | 0 | 0 | 0 | 0 | 0 | 0 | 0 | 0 | 0 | 0 | 0 | 0 | 0 | 0 | 0 | 0 | 0 | 0
13 | CC(C)(C[C@H](N)C(=O)O)C(F)F [NV-5138 (hydrochloride)] (10 µM) | 0 | 0 | 0 | 0 | 0 | 0 | 0 | 0 | 0 | 0 | 0 | 0 | 0 | 0 | 0 | 0 | 0 | 0 | 0 | 0
14 | COc1cc2ncnc(-n3nc(-c4ccccn4)nc3N)c2cc1OC (10 µM) | 0 | 3 | 0 | 0 | 0 | 0 | 0 | 0 | 0 | 0 | 0 | 0 | 0 | 0 | 0 | 0 | 0 | 0 | 0 | 0
15 | Cc1cccc2c3c(ccc12)C(=O)C1=C(OCC1C)C3=O (stereo not given) [Dihydroisotanshinone I] (2.5 µM) | 0 | 0 | 0 | 0 | 0 | 0 | 0 | 0 | 0 | 0 | 0 | 0 | 0 | 0 | 0 | 0 | 0 | 0 | 0 | 0
16 | CN(C)c1nc2c(Br)c(Br)c(Br)c(Br)c2[nH]1 (10 µM) | 0 | 0 | 0 | 0 | 0 | 0 | 0 | 0 | 0 | 0 | 0 | 0 | 0 | 0 | 0 | 0 | 0 | 0 | 0 | 0
17 | O=C(Nc1cccc(Nc2ncc(Br)c(NCCc3cnc[nH]3)n2)c1)N1CCCC1 (10 µM) | 0 | 0 | 0 | 1 | 0 | 0 | 0 | 0 | 0 | 0 | 0 | 0 | 0 | 0 | 0 | 0 | 0 | 0 | 2 | 3
18 | C=CC(=O)N1C[C@H](COc2nc(Nc3cnn(C)c3)nc3[nH]cc(Cl)c23)[C@@H](OC)C1 (2.5 µM) | 0 | 0 | 0 | 0 | 0 | 0 | 0 | 0 | 0 | 0 | 0 | 0 | 0 | 0 | 0 | 0 | 0 | 0 | 0 | 0
19 | Cc1nc(-c2cnn(C)c2)nc2c1[nH]c1ncc(-c3ccc(N4CCN(C)CC4)cc3)cc12 [GNE 220 (hydrochloride)] (10 µM) | 0 | 0 | 0 | 0 | 0 | 0 | 0 | 0 | 0 | 0 | 0 | 0 | 0 | 0 | 0 | 0 | 0 | 0 | 0 | 0
20 | C=CC(=O)Nc1cccc(CNc2nc(Nc3ccc(N4CCN(C)CC4)cc3OC)ncc2Cl)c1 (10 µM) | 0 | 0 | 0 | 0 | 0 | 0 | 0 | 0 | 0 | 0 | 0 | 0 | 0 | 0 | 0 | 0 | 0 | 0 | 0 | 0
21 | C[C@@H]1COCCN1c1nc(-c2cnc(N)cc2C(F)F)nc(N2[C@H](C)COC[C@@H]2C)n1 (2.5 µM) | 0 | 1 | 0 | 0 | 0 | 0 | 4 | 0 | 2 | 0 | 0 | 0 | 0 | 0 | 0 | 0 | 0 | 0 | 0 | 0
22 | O=C(O)c1cc(=O)c2c(OCC(O)COc3cccc4oc(C(=O)O)cc(=O)c34)cccc2o1 [Cromolyn (sodium)] (10 µM) | 0 | 0 | 0 | 0 | 0 | 0 | 0 | 0 | 0 | 0 | 0 | 0 | 0 | 0 | 0 | 0 | 0 | 0 | 0 | 0
23 | O=C1NC(=Nc2c(Cl)cccc2Cl)S/C1=C\c1ccc2nccnc2c1 (2.5 µM) | 0 | 0 | 0 | 0 | 0 | 0 | 0 | 0 | 0 | 0 | 0 | 0 | 0 | 0 | 0 | 0 | 0 | 0 | 0 | 2
24 | C=C[C@@](C)(/C=C/c1ccc(O)cc1)CCC=C(C)C [Bakuchiol] (10 µM) | 0 | 0 | 0 | 0 | 0 | 0 | 0 | 0 | 0 | 0 | 0 | 0 | 0 | 0 | 0 | 0 | 0 | 0 | 0 | 0
25 | CC(C)S(=O)(=O)c1ccc2nccc(Nc3ccc4scnc4c3)c2c1 (10 µM) | 0 | 0 | 0 | 0 | 3 | 0 | 0 | 0 | 0 | 4 | 0 | 0 | 0 | 0 | 0 | 0 | 0 | 0 | 0 | 0

Another view of some results above.
Row,SMILES,number of time points (PRKCA),number of time points (PTK2),number of time points (PTK2B),number of time points (RAF1),number of time points [1],number of time points (RET),number of time points [2],number of time points (RIOK1),number of time points (RIPK1),number of time points (RIPK2),number of time points (ROR2),number of time points (RPS6KA1),number of time points (SPHK1),number of time points (SRC),number of time points (STK24),number of time points (STK38),number of time points (SYK),number of time points (TEC),number of time points (TYK2),number of time points (ULK3)
15,Cc1cccc2c3c(ccc12)C(=O)C1=C(OCC1C)C3=O (stereo not given) [Dihydroisotanshinone I] (2.5 µM),0,0,0,0,0,0,0,0,0,0,0,0,0,0,0,0,0,0,0,0
16,CN(C)c1nc2c(Br)c(Br)c(Br)c(Br)c2[nH]1 (10 µM),0,0,0,0,0,0,0,0,0,0,0,0,0,0,0,0,0,0,0,0
